{"source": "PubChem BioAssay AID1259254 (NCATS, 2017)", "test": "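Genome-wide screen for genes that prevent DNA re-replication in cancer cells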 (primary screen)", "cell system": "human HCT116 colorectal cancer cells", "reagent": "single siRNA against human genes", "timing": "3 days", "measured": "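Imaged Hoechst DNA stain sorts each cell into a cycle phase by DNA amount; per plate, G2 fraction set to 0% for non-targeting and 100% for GMNN siRNA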", "reading the numbers": "G2 robust z-score: higher = more G2 cells, more excess DNA replication", "active means": "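Active siRNAs have a G2 robust z of 5 or more median absolute deviations over the median, which in these data means about 38% or higher of GMNN control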", "note": "The whole screen tested about 59,000 reagents; below is a part drawn at random. Of all reagents, about 1,550 (2.6%) were called active. 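G2 share is only a proxy for re-replication; each gene was hit by three separate siRNAs, and active genes were retested.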 The numbers tell different reagents against one gene apart. Not all columns of the deposit are shown. Not stated in the record: the amount of reagent."}
{"target gene": "METAP1D (methionyl aminopeptidase type 1D, mitochondrial)", "siRNA no.": 1, "G2 robust z-score": -0.733, "call": "inactive"}
{"target gene": "METAP1D (methionyl aminopeptidase type 1D, mitochondrial)", "siRNA no.": 2, "G2 robust z-score": 2.41, "call": "inactive"}
{"target gene": "METAP1D (methionyl aminopeptidase type 1D, mitochondrial)", "siRNA no.": 3, "G2 robust z-score": 1.43, "call": "inactive"}
{"target gene": "GLS (glutaminase)", "siRNA no.": 1, "G2 robust z-score": -0.695, "call": "inactive"}
{"target gene": "GLS (glutaminase)", "siRNA no.": 2, "G2 robust z-score": 1.26, "call": "inactive"}
{"target gene": "GLS (glutaminase)", "siRNA no.": 3, "G2 robust z-score": 2.24, "call": "inactive"}
{"target gene": "PIGU (phosphatidylinositol glycan anchor biosynthesis class U)", "siRNA no.": 1, "G2 robust z-score": -1.13, "call": "inactive"}
{"target gene": "PIGU (phosphatidylinositol glycan anchor biosynthesis class U)", "siRNA no.": 2, "G2 robust z-score": -0.142, "call": "inactive"}
{"target gene": "PIGU (phosphatidylinositol glycan anchor biosynthesis class U)", "siRNA no.": 3, "G2 robust z-score": -0.221, "call": "inactive"}
{"target gene": "MYO9A (myosin IXA)", "siRNA no.": 1, "G2 robust z-score": 2.55, "call": "inactive"}
{"target gene": "MYO9A (myosin IXA)", "siRNA no.": 2, "G2 robust z-score": -0.384, "call": "inactive"}
{"target gene": "MYO9A (myosin IXA)", "siRNA no.": 3, "G2 robust z-score": -0.68, "call": "inactive"}
{"target gene": "PRSS38 (serine protease 38)", "siRNA no.": 1, "G2 robust z-score": 2.17, "call": "inactive"}
{"target gene": "PRSS38 (serine protease 38)", "siRNA no.": 2, "G2 robust z-score": 1.79, "call": "inactive"}
{"target gene": "PRSS38 (serine protease 38)", "siRNA no.": 3, "G2 robust z-score": -0.734, "call": "inactive"}
{"target gene": "DYNLT1 (dynein light chain Tctex-type 1)", "siRNA no.": 1, "G2 robust z-score": -1.49, "call": "inactive"}
{"target gene": "DYNLT1 (dynein light chain Tctex-type 1)", "siRNA no.": 2, "G2 robust z-score": -0.893, "call": "inactive"}
{"target gene": "DYNLT1 (dynein light chain Tctex-type 1)", "siRNA no.": 3, "G2 robust z-score": -0.541, "call": "inactive"}
{"target gene": "CREB3 (cAMP responsive element binding protein 3)", "siRNA no.": 1, "G2 robust z-score": -0.335, "call": "inactive"}
{"target gene": "CREB3 (cAMP responsive element binding protein 3)", "siRNA no.": 2, "G2 robust z-score": 1.08, "call": "inactive"}
{"target gene": "CREB3 (cAMP responsive element binding protein 3)", "siRNA no.": 3, "G2 robust z-score": -0.474, "call": "inactive"}
{"target gene": "VCPIP1 (valosin containing protein interacting protein 1)", "siRNA no.": 1, "G2 robust z-score": -0.525, "call": "inactive"}
{"target gene": "VCPIP1 (valosin containing protein interacting protein 1)", "siRNA no.": 2, "G2 robust z-score": -0.453, "call": "inactive"}
{"target gene": "VCPIP1 (valosin containing protein interacting protein 1)", "siRNA no.": 3, "G2 robust z-score": -0.534, "call": "inactive"}

An excerpt from the list above, as a working copy:
{"target gene": "CREB3 (cAMP responsive element binding protein 3)", "siRNA no.": 3, "G2 robust z-score": -0.474, "call": "inactive"}
{"target gene": "VCPIP1 (valosin containing protein interacting protein 1)", "siRNA no.": 1, "G2 robust z-score": -0.525, "call": "inactive"}
